# PubChem BioAssay AID686943 – Drosophila RNAi Screening Center, 2013
# Test: 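Search across the genome for regulators of signalling from receptor tyrosine kinase to ERK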 (primary screen)
# Cells: Drosophila S2R+ haemocyte-like cells expressing YFP-tagged ERK (Rolled)
# Knock-down reagent: long dsRNA against Drosophila genes
# Challenge: insulin stimulation versus unstimulated cells; dose and duration not given
# Read-out: 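Antibody staining for doubly phosphorylated ERK divided by ERK-YFP signal, as plate z-scores, in insulin-treated and untreated cells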
# Scale: replicate 1, z-score of dpERK with insulin and replicate 2, z-score of dpERK with insulin: higher = more active ERK per ERK-YFP after insulin; replicate 1, z-score of dpERK under basal conditions: higher = more basal active ERK per ERK-YFP; replicate 1, z-score of ERK-YFP with insulin: higher = more YFP-tagged ERK signal
# The deposit covers about 23,000 reagents; shown is an unselected part of those with a known target gene and a result. 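Extra replicates exist only for a retested subset of genes; insulin dose and duration not given; both raised and lowered dpERK matter.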 Names joined by + are all predicted targets of the reagent. Not given: the amount of reagent, the time to read-out.
gene,dsRNA,"replicate 1, z-score of dpERK with insulin","replicate 2, z-score of dpERK with insulin","replicate 1, z-score of dpERK under basal conditions","replicate 1, z-score of ERK-YFP with insulin"
tio (GeneID 44272),DRSC03739,0.58,0.06,-1.08,-0.45
CG3106 (GeneID 31909),DRSC18279,0.68,0.28,-0.03,0.26
Rtf1 (GeneID 37554),DRSC04085,2.27,2.23,-1.36,-2.99
MSBP (GeneID 32548),DRSC20146,0.87,0.89,1.08,-0.03
AQP (GeneID 36456),DRSC06122,-0.3,0.1,0.36,0.03
CG14153 (GeneID 39208),DRSC10155,0.63,1.01,-0.06,0.1
CG14153 (GeneID 39208),DRSC22595,0.62,0.37,-0.45,-0.01
CG32161 (GeneID 317890),DRSC22128,-0.61,-1.99,-0.82,-1.77
synr (GeneID 33702),DRSC02369,0.52,0.52,-0.73,0.8
CR15821 (GeneID 3771832),DRSC08481,-0.33,-0.02,0.3,0.59
Ir94c (GeneID 318727),DRSC13539,-0.38,0.22,0.35,0.14
mol (GeneID 34872),DRSC01431,-1.94,-1.35,-0.78,-1.82
mol (GeneID 34872),DRSC01912,-1.62,-1.2,0.28,0.47
mol (GeneID 34872),DRSC02479,-0.18,0.23,-1.71,0.48
CG3726 (GeneID 31525),DRSC18320,-1.31,0.3,0.26,2.73
Or19a (GeneID 59214),DRSC20684,-0.04,0.07,1.15,0.02
CG15209 (GeneID 32011),DRSC19655,0.59,0.07,0.15,-0.02
Daao1 (GeneID 36128),DRSC06131,0.54,0.15,-0.29,-0.37
CG40948 (retired record) (GeneID 5740550),DRSC20944,-1.43,-0.7,4.16,-0.02
SmydA-1 (GeneID 36581),DRSC07200,0.29,0.17,-0.01,0.29
Trx2 (GeneID 34281),DRSC03622,0.83,0.13,-0.82,0.29
glec (GeneID 42571),DRSC16958,0.12,-0.36,-1.47,1.06
ey (GeneID 43812),DRSC17173,0.42,0.15,-0.05,-0.01
rdgBbeta (GeneID 37011),DRSC07672,0.01,0.19,0.72,0.83
ldd (GeneID 318066),DRSC20558,0.62,0.43,-0.3,0.1
ldd (GeneID 318066),DRSC22696,0.15,0.25,-0.95,-0.13
CG4250 (GeneID 37599),DRSC04455,-0.24,0.29,1.02,0.43
CG14180 (retired record) (GeneID 39101),DRSC10179,-0.87,-2.12,-1.8,-0.93
Bro (GeneID 38202),DRSC08149,-0.19,-0.61,0.54,0.3
Rga + asRNA:ASTR,DRSC12364,0.08,-1.03,0.06,-1.53
eIF3g1 (GeneID 31243),DRSC18427,-1.63,-0.6,6.76,-1.11
Pburs (GeneID 34845),DRSC02483,0.1,0.06,0.31,0.42
CG30288 (GeneID 246531),DRSC22005,0.29,0.65,0.06,1.56
FMRFa (GeneID 36030),DRSC07428,-0.35,0.1,-0.13,0.7
CG31068 (GeneID 318578),DRSC13820,-0.21,-0.31,0.06,0.21
CG12009 (GeneID 38405),DRSC08217,-0.25,-0.4,-0.01,0.95
Cyt-c1L (GeneID 43457),DRSC14860,0.4,0.1,1.16,0.13
Cyt-c1L (GeneID 43457),DRSC22096,-0.27,1.08,-0.67,1.21

Just “replicate 1, z-score of dpERK with insulin” (4 entries from above):
CG14153 (GeneID 39208) [DRSC22595]	0.62
CG32161 (GeneID 317890) [DRSC22128]	-0.61
synr (GeneID 33702) [DRSC02369]	0.52
CR15821 (GeneID 3771832) [DRSC08481]	-0.33

Continued.
gene,dsRNA,"replicate 1, z-score of dpERK with insulin","replicate 2, z-score of dpERK with insulin","replicate 1, z-score of dpERK under basal conditions","replicate 1, z-score of ERK-YFP with insulin"
CG30010 (GeneID 246389),DRSC05193,1.31,0.33,-0.33,-0.69
Gnpnat (GeneID 43504),DRSC15405,-0.02,0.9,0.23,1.18
gcl (GeneID 35864),DRSC07623,0.08,-0.31,0.02,0.22
CG12129 (GeneID 36044),DRSC06105,0.28,0.46,0.06,0
CG8490 (GeneID 36338),DRSC07194,0.1,0.75,-0.48,0.26
Gpxl (GeneID 37194),DRSC06538,0.01,0.28,0.12,0.9
CG7512 (GeneID 39289),DRSC10863,-1.57,-0.57,-0.95,1.07
CG31365 (GeneID 42736),DRSC15610,0.31,0.55,-0.64,0.95
Hsc70-3 (GeneID 32133),DRSC20253,1.99,-0.91,1.83,-4.63
ymp (GeneID 43088),DRSC13720,-0.02,0.86,0.92,-0.36
ymp (GeneID 43088),DRSC14482,-0.68,0.27,-0.4,0.11
Strump (GeneID 39766),DRSC09872,0.26,-0.42,0.55,0.5
Tsc1 (GeneID 42862),DRSC16890,-0.88,-2,-0.26,0.27
CG43138 (GeneID 12797949),DRSC17527,-0.21,0.1,-1.69,-0.38
CG40005 (retired record) + cta,DRSC03763,1.38,-0.57,4.81,0.06
Edem2 (GeneID 34714),DRSC02877,0.19,0.38,1.23,0.68
Hand (GeneID 34379),DRSC02656,0.17,0.92,-1.01,1.32
CG15745 (retired record) (GeneID 32283),DRSC19711,-0.57,0.03,-1.88,0.52
CG8343 (GeneID 35544),DRSC04905,0.13,-0.23,-0.17,-0.29
